PubChem BioAssay AID1224826, NIAID, 2016
Assay: 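Regulators of Tlr4 signalling leading to Tnf-alpha expression in macrophages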 (primary screen). Cells: RAW264.7 G9 macrophages from mouse bearing reporters for p65 (GFP) and the Tnf promoter (mCherry). Reagents: siRNA pool against mouse genes, 100 nM. Timing: 16 h of LPS stimulation, after 2 days of siRNA transfection. Treatment: bacterial lipopolysaccharide (Salmonella minnesota R595), 10 ng/ml. Measured: 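Nuclear mCherry signal of the Tnf promoter reporter measured by imaging after background removal, scaled to each plate median and turned into robust z-scores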. Reading the numbers: Tnf reporter robust z-score: higher = stronger Tnf promoter reporter signal after LPS; Tnf reporter intensity: higher = stronger Tnf promoter reporter signal. Active means: 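Called active when robust z-score is at most -1.3, matching the median of the Tlr4 knock-down control, or over 3; control wells and wells with under 50 cells never active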. Calls: active = Tnf reporter clearly lowered or raised; inactive = no clear change in Tnf reporter.
The deposit covers about 17,000 reagents; this is a random part of them. About 1,110 of them (6.6%) count as active. 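Active means lowered or raised reporter signal; replicate intensities are raw and not normalised per plate.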 A number with no mark means an inactive call. Reagents against one gene are numbered here. Some reagents were tested in more than one well and are listed for each.

The first 5 records, to show the layout:
gene knocked down | reagent | Tnf reporter robust z-score | fewer than 50 cells in well | Tnf reporter intensity, replicate 1 | Tnf reporter intensity, replicate 2
Or52b2 (olfactory receptor family 52 subfamily B member 2) | 1 | 1.85 | enough cells in well | 119 | 244
Ccr3 (C-C motif chemokine receptor 3) | 1 | -0.76 | enough cells in well | 158 | 223
Prdm13 (PR domain containing 13) | 1 | 0.13 | enough cells in well | 256 | 202
Adam21 (a disintegrin and metallopeptidase domain 21) | 1 | 0.31 | enough cells in well | 243 | 193
Gmip (Gem-interacting protein) | 1 | -0.21 | enough cells in well | 270 | 124

The list itself, from the first entry:
gene knocked down | reagent | Tnf reporter robust z-score | fewer than 50 cells in well | Tnf reporter intensity, replicate 1 | Tnf reporter intensity, replicate 2
Or52b2 (olfactory receptor family 52 subfamily B member 2) | 1 | 1.85 | enough cells in well | 119 | 244
Ccr3 (C-C motif chemokine receptor 3) | 1 | -0.76 | enough cells in well | 158 | 223
Prdm13 (PR domain containing 13) | 1 | 0.13 | enough cells in well | 256 | 202
Adam21 (a disintegrin and metallopeptidase domain 21) | 1 | 0.31 | enough cells in well | 243 | 193
Gmip (Gem-interacting protein) | 1 | -0.21 | enough cells in well | 270 | 124
Ca12 (carbonic anhydrase 12) | 1 | 0.78 | enough cells in well | 157 | 241
Cdh13 (cadherin 13) | 1 | -0.65 | enough cells in well | 203 | 152
Hopx (HOP homeobox) | 1 | -1.09 | enough cells in well | 166 | 96.6
Taar5 (trace amine-associated receptor 5) | 1 | -1.11 | enough cells in well | 118 | 212
Spic (Spi-C transcription factor (Spi-1/PU.1 related)) | 1 | -0.68 | enough cells in well | 229 | 154
Glud1 (glutamate dehydrogenase 1) | 1 | -0.26 | enough cells in well | 233 | 157
Nxph1 (neurexophilin 1) | 1 | -1.26 | enough cells in well | 82.8 | 107
Tbcc (tubulin-specific chaperone C) | 1 | -0.42 | enough cells in well | 211 | 108
Capn1 (calpain 1) | 1 | 0.15 | enough cells in well | 158 | 162
4930599N23Rik (RIKEN cDNA 4930599N23 gene) | 1 | – | fewer than 50 cells per well; well left out of calls | 335 | 51.5
Syngr3 (synaptogyrin 3) | 1 | -0.42 | enough cells in well | 102 | 80.6
Gpatch1 (G patch domain containing 1) | 1 | -1.07 | enough cells in well | 166 | 104
Slc5a6 | 1 | -1.57 (active) | enough cells in well | 52.9 | 41.9
Cobl (cordon-bleu WH2 repeat) | 1 | 0.35 | enough cells in well | 156 | 235
Abraxas1 (BRCA1 A complex subunit) | 1 | 0.42 | enough cells in well | 212 | 158
Abraxas1 (BRCA1 A complex subunit) | 2 | -0.25 | enough cells in well | 138 | 61.5
Igfn1 | 1 | -1.08 | enough cells in well | 146 | 86.6
Or10j3b (olfactory receptor family 10 subfamily J member 3B) | 1 | -0.86 | enough cells in well | 110 | 98.4
H3c11 (H3 clustered histone 11) | 1 | – | fewer than 50 cells per well; well left out of calls | 200 | 157
Trim50 (tripartite motif-containing 50) | 1 | 1.82 | enough cells in well | 196 | 140
Sgcg (sarcoglycan, gamma (dystrophin-associated glycoprotein)) | 1 | -0.44 | enough cells in well | 258 | 167
Lrrk2 (leucine-rich repeat kinase 2) | 1 | -1.26 | enough cells in well | 117 | 84.4
Lrrk2 (leucine-rich repeat kinase 2) | 1 | – | fewer than 50 cells per well; well left out of calls | 125 | 23.2
H2al1m (H2A histone family member L1M) | 1 | – | fewer than 50 cells per well; well left out of calls | 198 | 80.3
Kalrn (kalirin, RhoGEF kinase) | 1 | -1.1 | enough cells in well | 121 | 69.4
Ms4a2 (membrane-spanning 4-domains, subfamily A, member 2) | 1 | -0.83 | enough cells in well | 187 | 66
Vmn2r10 (vomeronasal 2, receptor 10) | 1 | -0.43 | enough cells in well | 118 | 62.4
Nek6 (NIMA (never in mitosis gene a)-related expressed kinase 6) | 1 | 2.85 | enough cells in well | 352 | 347
Lancl2 (LanC (bacterial lantibiotic synthetase component C)-like 2) | 1 | 0.44 | enough cells in well | 188 | 173
Golt1b (golgi transport 1B) | 1 | 0.54 | enough cells in well | 182 | 54
Or52u1 (olfactory receptor family 52 subfamily U member 1) | 1 | -0.15 | enough cells in well | 95.6 | 109
Foxm1 (forkhead box M1) | 1 | -0.11 | enough cells in well | 284 | 193
Anks3 (ankyrin repeat and sterile alpha motif domain containing 3) | 1 | – | fewer than 50 cells per well; well left out of calls | 147 | 56.2
Rfc1 (replication factor C (activator 1) 1) | 1 | 0.47 | enough cells in well | 357 | 239
Sstr1 (somatostatin receptor 1) | 1 | -0.14 | enough cells in well | 290 | 117
